{"source": "patent US11953435B2", "about": "“Zinc-responsive fluorophores” (Northwestern University, priority 2019, dated 2024)"}
{"assay": "Job plot with Zn", "assay_type": "binding", "conditions": "probe (5 μM) and Zn(NO3)2 (5 μM)"}
{"smiles": "Cc1cc(C)c(C2=C3C=CC(OCCN=[N+]=[N-])=[N+]3[B-](F)(F)n3c2ccc3N(CCN(Cc2ccccn2)Cc2ccccn2)Cc2ccccn2)c(C)c1", "note": "[ZincBY-2, N1-(7-(2-azidoethoxy)-5,5-difluoro-10-mesityl-5H-4λ4,5λ4-dipyrrolo[1,2-c:2′,1′-f][1,3,2]diazaborinin-3-yl)-N1,N2,N2-tris(pyridin-2-ylmethyl)ethane-1,2-diamine]", "mole fraction at which fluorescence intensity reaches a maximum (Job plot)": 0.5}
{"smiles": "Cc1cc(C)c(C2=C3C=CC(OCCN)=[N+]3[B-](F)(F)n3c2ccc3N(CCN(Cc2ccccn2)Cc2ccccn2)Cc2ccccn2)c(C)c1", "note": "[ZincBY-3, N1-(7-(2-aminoethoxy)-5,5-difluoro-10-mesityl-5H-4λ4,5λ4-dipyrrolo[1,2-c:2′,1′-f][1,3,2]diazaborinin-3-yl)-N1,N2,N2-tris(pyridin-2-ylmethyl)ethane-1,2-diamine]", "mole fraction at which fluorescence intensity reaches a maximum (Job plot)": 0.5}
{"smiles": "CC(=O)NCCOc1ccc2n1[B-](F)(F)[N+]1=C(N(CCN(Cc3ccccn3)Cc3ccccn3)Cc3ccccn3)C=CC1=C2c1c(C)cc(C)cc1C", "note": "[ZincBY-4, N-(2-((7-((2-(bis(pyridin-2-ylmethyl)amino)ethyl)(pyridin-2-ylmethyl)amino)-5,5-difluoro-10-mesityl-5H-5λ4,6λ4-dipyrrolo[1,2-c:2′,1′-f][1,3,2]diazaborinin-3-yl)oxy)ethyl)acetamide]", "mole fraction at which fluorescence intensity reaches a maximum (Job plot)": 0.5}
